Some of the results follow. Residues, ends and D or L forms follow the SMILES beside them. *: point of attachment. Cbz = O=C(OCc1ccccc1)*
Tests used:
Assay in all cases: log2 fold change, soluble protein after heating vs DMSO (PISA); higher = thermal stabilisation; K562 cells, 10 uM, 30 min; active = over 0.2 and 3.5 SD of the protein, either way, in both replicates (recomputed)
erlotinib = compound: C#Cc1cccc(Nc2ncnc3cc(OCCOC)c(OCCOC)cc23)c1 [erlotinib]
Summary of the method: (§1)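 For each measurement, 10 μM compound was applied for 30 min to K562 cells at 2×10^6 cells/mL. Aliquots were heated for 3 min across 48°C-58°C, pooled, and extracted in PBS with 0.5% NP-40 at 4°C; the supernatant after 21,000xg for 90 min was soluble protein. This was quantified by TMTpro 16plex LC-MS/MS with channel sums equalised, and thermal stability was reported relative to control samples from duplicates, on a log2 fold-change scale.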

By UniProt entry, the sequences of proteins in these tests, tags left out. Where a name states a change or a piece, a line headed by the entry shows the natural chain unless it says otherwise.
UniProt Q14192: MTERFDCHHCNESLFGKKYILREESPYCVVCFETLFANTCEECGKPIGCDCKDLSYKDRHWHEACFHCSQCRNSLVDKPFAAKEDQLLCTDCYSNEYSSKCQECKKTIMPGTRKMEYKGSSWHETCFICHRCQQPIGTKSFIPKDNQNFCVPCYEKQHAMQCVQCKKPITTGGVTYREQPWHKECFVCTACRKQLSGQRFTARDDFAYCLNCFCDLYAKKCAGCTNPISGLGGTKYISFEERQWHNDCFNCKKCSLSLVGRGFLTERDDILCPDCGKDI
UniProt Q9UIM3: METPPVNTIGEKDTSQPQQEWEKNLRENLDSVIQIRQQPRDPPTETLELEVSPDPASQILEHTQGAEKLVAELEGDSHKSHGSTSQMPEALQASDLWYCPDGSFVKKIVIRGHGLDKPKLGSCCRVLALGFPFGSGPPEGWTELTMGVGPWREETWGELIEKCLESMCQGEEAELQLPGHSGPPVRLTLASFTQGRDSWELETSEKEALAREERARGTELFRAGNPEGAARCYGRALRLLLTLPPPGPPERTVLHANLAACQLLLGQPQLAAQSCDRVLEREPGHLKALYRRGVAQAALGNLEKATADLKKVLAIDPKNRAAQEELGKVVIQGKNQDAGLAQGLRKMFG
UniProt Q9H479: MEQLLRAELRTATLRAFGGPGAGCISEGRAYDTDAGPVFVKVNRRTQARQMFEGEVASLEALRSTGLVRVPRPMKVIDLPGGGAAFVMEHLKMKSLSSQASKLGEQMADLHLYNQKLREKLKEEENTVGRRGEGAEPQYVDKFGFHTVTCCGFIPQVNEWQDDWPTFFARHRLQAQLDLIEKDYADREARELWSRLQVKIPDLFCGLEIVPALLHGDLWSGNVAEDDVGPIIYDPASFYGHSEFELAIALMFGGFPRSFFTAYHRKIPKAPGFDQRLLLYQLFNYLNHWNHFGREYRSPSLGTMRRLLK
UniProt Q8NFF5: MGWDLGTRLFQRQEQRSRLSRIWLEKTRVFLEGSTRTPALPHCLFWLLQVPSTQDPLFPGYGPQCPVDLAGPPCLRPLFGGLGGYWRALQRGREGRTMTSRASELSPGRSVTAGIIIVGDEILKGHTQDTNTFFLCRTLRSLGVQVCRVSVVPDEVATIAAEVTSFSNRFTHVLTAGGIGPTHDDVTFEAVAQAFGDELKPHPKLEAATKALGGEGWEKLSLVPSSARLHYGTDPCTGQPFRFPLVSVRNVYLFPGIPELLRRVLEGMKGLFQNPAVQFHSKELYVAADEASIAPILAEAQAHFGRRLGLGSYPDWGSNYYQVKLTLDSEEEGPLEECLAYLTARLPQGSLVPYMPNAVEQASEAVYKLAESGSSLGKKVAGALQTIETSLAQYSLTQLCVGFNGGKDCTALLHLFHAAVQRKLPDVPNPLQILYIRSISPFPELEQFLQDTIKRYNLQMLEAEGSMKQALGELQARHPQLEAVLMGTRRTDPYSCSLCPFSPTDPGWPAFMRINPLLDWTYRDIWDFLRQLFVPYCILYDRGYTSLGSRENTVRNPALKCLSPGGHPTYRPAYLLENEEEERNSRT
UniProt Q5XUX1: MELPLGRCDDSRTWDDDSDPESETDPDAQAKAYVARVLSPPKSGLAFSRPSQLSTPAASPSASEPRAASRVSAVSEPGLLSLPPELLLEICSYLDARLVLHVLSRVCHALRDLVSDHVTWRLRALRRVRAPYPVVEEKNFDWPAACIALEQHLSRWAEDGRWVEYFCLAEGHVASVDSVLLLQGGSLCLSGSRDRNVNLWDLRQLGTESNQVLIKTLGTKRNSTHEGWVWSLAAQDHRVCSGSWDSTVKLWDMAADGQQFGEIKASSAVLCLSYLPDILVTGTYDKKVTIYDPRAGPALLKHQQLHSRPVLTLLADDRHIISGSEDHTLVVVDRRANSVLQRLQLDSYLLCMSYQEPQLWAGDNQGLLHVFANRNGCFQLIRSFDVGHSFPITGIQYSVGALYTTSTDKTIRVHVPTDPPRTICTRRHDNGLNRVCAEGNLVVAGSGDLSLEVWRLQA
UniProt Q00688: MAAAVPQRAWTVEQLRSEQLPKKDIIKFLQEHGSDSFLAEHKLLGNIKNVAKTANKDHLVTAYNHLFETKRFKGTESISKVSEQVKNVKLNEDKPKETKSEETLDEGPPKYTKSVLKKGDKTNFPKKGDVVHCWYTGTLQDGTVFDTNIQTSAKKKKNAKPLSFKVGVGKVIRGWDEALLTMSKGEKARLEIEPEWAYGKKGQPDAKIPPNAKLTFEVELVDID
UniProt Q86UX7, whole entry, looked up: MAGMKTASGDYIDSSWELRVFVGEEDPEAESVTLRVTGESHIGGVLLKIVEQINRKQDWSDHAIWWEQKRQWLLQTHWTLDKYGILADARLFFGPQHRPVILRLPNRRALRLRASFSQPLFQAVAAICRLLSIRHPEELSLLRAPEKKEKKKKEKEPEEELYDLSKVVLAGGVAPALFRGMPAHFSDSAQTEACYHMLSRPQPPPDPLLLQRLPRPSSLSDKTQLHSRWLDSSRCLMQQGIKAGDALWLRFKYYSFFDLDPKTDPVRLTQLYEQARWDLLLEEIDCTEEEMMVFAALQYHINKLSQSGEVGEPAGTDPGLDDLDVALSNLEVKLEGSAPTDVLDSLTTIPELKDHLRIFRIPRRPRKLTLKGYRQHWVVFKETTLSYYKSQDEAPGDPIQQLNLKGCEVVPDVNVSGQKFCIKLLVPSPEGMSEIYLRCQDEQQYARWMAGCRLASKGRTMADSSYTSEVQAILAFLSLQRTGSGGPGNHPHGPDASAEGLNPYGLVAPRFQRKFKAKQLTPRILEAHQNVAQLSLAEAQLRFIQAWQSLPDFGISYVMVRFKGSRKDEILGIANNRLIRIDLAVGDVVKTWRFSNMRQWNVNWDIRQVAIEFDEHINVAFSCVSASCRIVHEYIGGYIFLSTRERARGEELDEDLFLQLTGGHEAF
UniProt Q13451: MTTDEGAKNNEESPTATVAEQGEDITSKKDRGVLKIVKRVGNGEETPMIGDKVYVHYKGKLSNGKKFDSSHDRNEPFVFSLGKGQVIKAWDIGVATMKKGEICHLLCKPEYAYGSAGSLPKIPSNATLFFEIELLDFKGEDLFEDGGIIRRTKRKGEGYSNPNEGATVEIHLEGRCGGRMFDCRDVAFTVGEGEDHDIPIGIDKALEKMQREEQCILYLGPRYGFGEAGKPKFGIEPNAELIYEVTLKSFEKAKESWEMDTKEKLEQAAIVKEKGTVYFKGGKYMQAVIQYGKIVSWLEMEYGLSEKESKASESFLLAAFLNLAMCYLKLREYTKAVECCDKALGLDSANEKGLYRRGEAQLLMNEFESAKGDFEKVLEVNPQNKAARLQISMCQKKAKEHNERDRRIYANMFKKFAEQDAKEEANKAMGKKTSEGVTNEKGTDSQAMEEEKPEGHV
UniProt Q96HJ9: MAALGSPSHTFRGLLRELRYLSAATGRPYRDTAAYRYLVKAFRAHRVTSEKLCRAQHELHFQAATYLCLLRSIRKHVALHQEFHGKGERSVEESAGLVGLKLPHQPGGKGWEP
UniProt Q96C11: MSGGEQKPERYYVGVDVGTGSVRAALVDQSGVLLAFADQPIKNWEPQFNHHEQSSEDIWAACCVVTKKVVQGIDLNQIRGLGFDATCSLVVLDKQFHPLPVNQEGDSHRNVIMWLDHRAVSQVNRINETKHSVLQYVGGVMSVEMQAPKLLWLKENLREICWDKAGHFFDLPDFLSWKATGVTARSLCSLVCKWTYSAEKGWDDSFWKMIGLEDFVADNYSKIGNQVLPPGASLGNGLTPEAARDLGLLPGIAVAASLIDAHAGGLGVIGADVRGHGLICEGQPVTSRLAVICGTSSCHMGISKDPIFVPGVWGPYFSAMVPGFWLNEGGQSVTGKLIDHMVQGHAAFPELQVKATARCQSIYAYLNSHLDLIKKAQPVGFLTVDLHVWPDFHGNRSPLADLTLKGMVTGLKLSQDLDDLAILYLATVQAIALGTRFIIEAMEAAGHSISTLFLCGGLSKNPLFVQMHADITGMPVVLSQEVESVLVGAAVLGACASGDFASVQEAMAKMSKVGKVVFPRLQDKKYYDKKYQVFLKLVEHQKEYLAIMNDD
UniProt Q9UK73, whole entry, looked up: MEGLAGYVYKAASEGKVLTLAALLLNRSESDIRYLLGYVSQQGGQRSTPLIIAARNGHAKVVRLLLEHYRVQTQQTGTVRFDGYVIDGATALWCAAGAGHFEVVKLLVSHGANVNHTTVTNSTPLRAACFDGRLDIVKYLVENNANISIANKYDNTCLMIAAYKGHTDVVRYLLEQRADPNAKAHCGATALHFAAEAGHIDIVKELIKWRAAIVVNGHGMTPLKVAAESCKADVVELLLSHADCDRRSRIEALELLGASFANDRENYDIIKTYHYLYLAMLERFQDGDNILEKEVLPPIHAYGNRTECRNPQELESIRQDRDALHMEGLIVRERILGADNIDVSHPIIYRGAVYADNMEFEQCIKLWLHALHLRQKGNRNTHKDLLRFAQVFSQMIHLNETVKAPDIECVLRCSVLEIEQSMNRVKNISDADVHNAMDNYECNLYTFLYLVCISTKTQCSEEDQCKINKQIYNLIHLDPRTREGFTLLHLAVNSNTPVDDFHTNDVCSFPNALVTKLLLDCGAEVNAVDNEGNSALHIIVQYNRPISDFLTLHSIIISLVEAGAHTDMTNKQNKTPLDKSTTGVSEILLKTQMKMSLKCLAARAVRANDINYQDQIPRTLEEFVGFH
UniProt Q9Y5Y0: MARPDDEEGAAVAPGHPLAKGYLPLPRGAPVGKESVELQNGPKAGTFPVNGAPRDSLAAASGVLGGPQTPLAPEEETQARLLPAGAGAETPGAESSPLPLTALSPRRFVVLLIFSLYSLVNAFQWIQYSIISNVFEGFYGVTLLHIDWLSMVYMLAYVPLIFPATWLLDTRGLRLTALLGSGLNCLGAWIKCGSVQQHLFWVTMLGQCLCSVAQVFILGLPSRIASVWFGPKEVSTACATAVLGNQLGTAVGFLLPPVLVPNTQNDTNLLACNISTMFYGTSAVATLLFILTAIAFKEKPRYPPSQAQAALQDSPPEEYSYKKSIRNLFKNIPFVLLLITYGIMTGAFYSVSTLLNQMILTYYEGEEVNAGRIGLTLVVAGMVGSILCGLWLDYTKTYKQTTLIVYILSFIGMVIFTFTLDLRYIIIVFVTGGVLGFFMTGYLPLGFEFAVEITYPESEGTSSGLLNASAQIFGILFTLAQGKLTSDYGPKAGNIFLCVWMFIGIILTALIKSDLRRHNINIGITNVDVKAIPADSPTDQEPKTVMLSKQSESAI
UniProt O43427: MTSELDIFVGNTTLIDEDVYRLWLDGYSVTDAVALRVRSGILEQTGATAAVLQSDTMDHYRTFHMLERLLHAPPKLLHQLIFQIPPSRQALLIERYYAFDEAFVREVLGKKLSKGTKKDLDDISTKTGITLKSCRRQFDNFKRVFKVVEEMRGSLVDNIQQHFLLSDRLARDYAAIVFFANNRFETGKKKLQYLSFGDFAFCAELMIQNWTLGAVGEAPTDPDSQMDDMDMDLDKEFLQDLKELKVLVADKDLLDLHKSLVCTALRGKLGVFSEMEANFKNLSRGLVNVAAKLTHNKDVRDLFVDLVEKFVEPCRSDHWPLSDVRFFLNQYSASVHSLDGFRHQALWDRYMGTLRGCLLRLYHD
UniProt Q5JUQ0: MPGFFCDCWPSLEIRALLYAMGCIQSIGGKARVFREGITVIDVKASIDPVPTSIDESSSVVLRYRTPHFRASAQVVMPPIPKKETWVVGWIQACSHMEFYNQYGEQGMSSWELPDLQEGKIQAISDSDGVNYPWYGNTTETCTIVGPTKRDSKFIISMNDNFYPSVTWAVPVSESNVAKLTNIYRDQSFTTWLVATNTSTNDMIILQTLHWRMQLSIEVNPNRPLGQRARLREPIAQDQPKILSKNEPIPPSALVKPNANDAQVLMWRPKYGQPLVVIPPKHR
UniProt Q5HYJ3: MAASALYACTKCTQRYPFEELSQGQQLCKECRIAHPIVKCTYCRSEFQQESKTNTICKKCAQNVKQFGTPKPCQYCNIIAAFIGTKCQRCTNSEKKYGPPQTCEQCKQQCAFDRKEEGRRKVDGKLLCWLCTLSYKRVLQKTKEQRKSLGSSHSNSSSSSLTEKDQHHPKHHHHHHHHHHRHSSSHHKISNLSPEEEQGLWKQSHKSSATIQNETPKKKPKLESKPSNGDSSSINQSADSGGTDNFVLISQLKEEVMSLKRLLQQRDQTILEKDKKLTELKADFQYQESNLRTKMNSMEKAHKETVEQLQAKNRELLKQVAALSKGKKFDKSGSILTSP
UniProt P14324: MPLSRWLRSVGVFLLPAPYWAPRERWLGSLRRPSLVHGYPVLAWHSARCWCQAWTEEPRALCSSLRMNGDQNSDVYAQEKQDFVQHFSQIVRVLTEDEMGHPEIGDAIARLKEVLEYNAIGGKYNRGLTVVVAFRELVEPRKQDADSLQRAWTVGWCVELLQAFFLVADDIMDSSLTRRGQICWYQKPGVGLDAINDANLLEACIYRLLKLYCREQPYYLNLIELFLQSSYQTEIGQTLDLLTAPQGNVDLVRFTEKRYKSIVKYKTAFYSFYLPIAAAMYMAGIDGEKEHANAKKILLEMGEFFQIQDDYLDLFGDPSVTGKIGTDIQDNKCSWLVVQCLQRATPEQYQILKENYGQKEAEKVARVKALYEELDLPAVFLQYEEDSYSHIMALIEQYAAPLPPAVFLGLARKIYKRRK

[1] = compound: C/C(=N\NC(=O)C1=CC(=CC=C1)S(=O)(=O)N2CCOCC2)/C3=C(C=CC(=C3)Cl)O
Summary of the method: as §1

[2] = compound: C1=CC(=C(C=C1Cl)C2=NC3=NC=CN=C3C(=N2)NC4=CC=NC=C4)F
Summary of the method: as §1

[3] = compound: C1=CC(=CC=C1C2=NC3=C(N2)C=C(C=C3)C(=O)N)OC4=CC=C(C=C4)Cl
Summary of the method: as §1

[4] = compound: C1=CC2=C(C=CC(=C2)/C=C\3/C(=O)NC(=NCC4=CC=CS4)S3)N=C1
Summary of the method: as §1

[5] = compound: C1=CC2=NC=CN=C2C=C1/C=C/3\C(=O)NC(=O)S3
Summary of the method: as §1

[6] = compound: C1=CC=C(C=C1)C2=NC(=C(N2)C3=CC=NC=C3)C4=CC(=C(C=C4)Cl)O
Summary of the method: as §1

[7] = compound: C1=CC=C2C(=C1)C3=NNC4=CC=CC(=C43)C2=O
Summary of the method: as §1

[8] = compound: C1CCN(C1)C(=O)NC2=CC=CC(=C2)NC3=NC=C(C(=N3)NCCC4=CN=CN4)Br
Summary of the method: as §1

[9] = compound: C1CN(CCC1(CC2=CC=C(C=C2)Cl)N)C3=NC=NC4=C3C=CN4
Summary of the method: as §1

IRAK-1-4 Inhibitor I = compound: C1COCCN1CCN2C3=CC=CC=C3N=C2NC(=O)C4=CC(=CC=C4)[N+](=O)[O-] [IRAK-1-4 Inhibitor I]
Summary of the method: as §1

ibrutinib = compound: C=CC(=O)N1CCC[C@@H](n2nc(-c3ccc(Oc4ccccc4)cc3)c3c(N)ncnc32)C1 [ibrutinib]
Summary of the method: as §1

[10] = compound: CC(=O)c1cnc2ccc(-c3cc(Cl)c(O)c(Cl)c3)nc2c1N[C@H]1CC[C@H](CN(C)C)CC1
Summary of the method: as §1

ralimetinib = compound: CC(C)(C)Cn1c(N)nc2ccc(-c3[nH]c(C(C)(C)C)nc3-c3ccc(F)cc3)nc21 [ralimetinib]
Summary of the method: as §1

[11] = compound: CC(C)(O)CC(=O)NCCn1ccc2ncnc(Nc3ccc(Oc4cccc(C(F)(F)F)c4)c(Cl)c3)c21
Summary of the method: as §1

[12] = compound: CC(C)C1=C2N=C(C=C(N2N=C1)NCC3=CC=CC=C3)NCCCCCCN
Summary of the method: as §1

[13] = compound: CC(C)C[C@@H](C=O)NC(=O)[C@H](CC(C)C)NC(=O)[C@H](CC(C)C)NC(=O)OCc1ccccc1
Summary of the method: as §1

pinometostat = compound: CC(C)N(C[C@H]1O[C@@H](n2cnc3c(N)ncnc32)[C@H](O)[C@@H]1O)[C@H]1C[C@@H](CCc2nc3cc(C(C)(C)C)ccc3[nH]2)C1 [pinometostat]
Summary of the method: as §1

[14] = compound: CC1=C(C(CC(=O)N1)C2=CC=C(C=C2)C(F)(F)F)C(=O)NC3=C(C=C4C(=C3)C=NN4)F
Summary of the method: as §1

[15] = compound: CC1=C(C2=C(C=C1)C(=O)C3=CC=CC=C3N2CCCN)C
Summary of the method: as §1

| Target | log2 fold change (erlotinib) | log2 fold change [1] | log2 fold change [2] | log2 fold change [3] | log2 fold change [4] | log2 fold change [5] | log2 fold change [6] | log2 fold change [7] | log2 fold change [8] | log2 fold change [9] | log2 fold change (IRAK-1-4 Inhibitor I) | log2 fold change (ibrutinib) | log2 fold change [10] | log2 fold change (ralimetinib) | log2 fold change [11] | log2 fold change [12] | log2 fold change [13] | log2 fold change (pinometostat) | log2 fold change [14] | log2 fold change [15] |
| --- | --- | --- | --- | --- | --- | --- | --- | --- | --- | --- | --- | --- | --- | --- | --- | --- | --- | --- | --- | --- |
| FHL2 (UniProt Q14192) | inactive: -0.002 | inactive: -0.017 | inactive: 0.003 | inactive: 0.005 | inactive: -0.078 | inactive: 0.07 | inactive: -0.05 | inactive: -0.086 | inactive: 0.002 | inactive: 0.108 | inactive: 0.007 | inactive: 0.024 | inactive: 0.016 | inactive: -0.079 | inactive: 0.02 | inactive: 0.116 | inactive: 0.021 | inactive: -0.044 | inactive: 0.02 | inactive: -0.027 |
| FKBPL (UniProt Q9UIM3) | inactive: -0.015 | inactive: 0.014 | inactive: 0.008 | inactive: 0.025 | inactive: 0.015 | inactive: 0.013 | inactive: 0.018 | inactive: -0.006 | inactive: -0.035 | inactive: 0.015 | inactive: -0.002 | inactive: 0.015 | inactive: 0 | inactive: -0.056 | inactive: -0.058 | inactive: 0.018 | inactive: 0.008 | inactive: 0 | inactive: -0.071 | inactive: 0.026 |
| FN3K (UniProt Q9H479) | inactive: 0.028 | inactive: 0.003 | inactive: 0.021 | inactive: 0.005 | inactive: 0.033 | inactive: -0.007 | inactive: -0.001 | inactive: -0.043 | inactive: -0.02 | inactive: 0.045 | inactive: 0.026 | inactive: 0.046 | inactive: -0.019 | inactive: 0.011 | inactive: 0 | inactive: 0.03 | inactive: -0.056 | inactive: -0.023 | inactive: 0.002 | inactive: -0.008 |
| FLAD1 (UniProt Q8NFF5) | inactive: 0.009 | inactive: 0.01 | inactive: 0.065 | inactive: 0.054 | inactive: 0.041 | inactive: -0.02 | inactive: -0.019 | inactive: 0.046 | inactive: 0.008 | inactive: -0.002 | inactive: 0.044 | inactive: 0.035 | inactive: -0.02 | inactive: -0.112 | inactive: -0.008 | inactive: -0.017 | inactive: 0.029 | inactive: -0.032 | inactive: -0.016 | inactive: 0.006 |
| FBXW9 (UniProt Q5XUX1) | inactive: 0.024 | inactive: 0.069 | inactive: 0.017 | inactive: 0.006 | inactive: -0.052 | inactive: -0.019 | inactive: -0.015 | inactive: 0.012 | inactive: -0.094 | inactive: 0.08 | inactive: 0.012 | inactive: 0.013 | inactive: -0.041 | inactive: -0.021 | inactive: -0.035 | inactive: -0.004 | inactive: 0.011 | inactive: -0.005 | inactive: 0.105 | inactive: 0.038 |
| FKBP3 (UniProt Q00688) | inactive: -0.001 | inactive: 0.014 | inactive: 0.061 | inactive: -0.012 | inactive: 0.013 | inactive: -0.004 | inactive: -0.028 | inactive: -0.001 | inactive: -0.007 | inactive: -0.017 | inactive: 0.01 | inactive: 0.009 | inactive: 0.016 | inactive: 0.001 | inactive: -0.028 | inactive: 0.023 | inactive: -0.014 | inactive: -0.057 |  | inactive: -0.004 |
| FERMT3 (UniProt Q86UX7) | inactive: 0.019 | inactive: 0.076 | inactive: 0.091 | inactive: -0.003 | inactive: 0.028 | inactive: 0.02 | inactive: 0.011 | inactive: 0.008 | inactive: -0.006 | inactive: 0.012 | inactive: -0.019 | inactive: -0.036 | inactive: -0.039 | inactive: 0.01 | inactive: -0.048 | inactive: -0.091 | inactive: -0.022 | inactive: -0.002 |  | inactive: 0.003 |
| FKBP5 (UniProt Q13451) | inactive: 0.072 | inactive: 0.085 | inactive: -0.029 | inactive: -0.053 | inactive: 0.054 | inactive: 0.015 | inactive: 0.073 | inactive: -0.014 | inactive: -0.099 | inactive: -0.168 | inactive: -0.129 | inactive: -0.094 | inactive: 0.019 | inactive: 0.091 | inactive: -0.082 | inactive: -0.244 | inactive: 0.09 | inactive: 0.083 | inactive: -0.038 | inactive: 0.022 |
| FMC1 (UniProt Q96HJ9) | inactive: 0 | inactive: 0.072 | inactive: 0.083 | inactive: 0.004 | inactive: 0.108 | inactive: -0.063 | active: 0.319 | inactive: 0.001 | inactive: -0.026 | inactive: -0.042 | inactive: -0.06 | inactive: 0.008 | inactive: 0.066 | inactive: -0.098 | inactive: -0.006 | inactive: 0.01 | inactive: 0.125 | inactive: 0.047 |  | inactive: 0.02 |
| FGGY isoform 3 (UniProt Q96C11) | inactive: 0.011 | inactive: -0.13 | inactive: 0.039 | inactive: 0.026 | inactive: 0.193 | inactive: 0.031 | inactive: -0.039 | inactive: -0.169 | inactive: 0.101 | inactive: 0.119 | inactive: -0.102 | inactive: 0.296 | inactive: 0 | inactive: -0.011 | inactive: -0.097 | inactive: 0.111 | inactive: 0.078 | inactive: -0.142 |  | inactive: -0.075 |
| FEM1B (UniProt Q9UK73) | inactive: 0.033 | inactive: 0.008 | inactive: -0.11 | inactive: 0.001 | inactive: -0.002 | inactive: 0.053 | inactive: 0.057 | inactive: 0.055 | inactive: -0.095 | inactive: 0.053 | inactive: 0.029 | inactive: -0.069 | inactive: -0.009 | inactive: -0.034 | inactive: -0.021 | inactive: 0.037 | inactive: 0.099 | inactive: 0.019 | inactive: 0.04 | inactive: -0.06 |
| FLVCR1 (UniProt Q9Y5Y0) | inactive: -0.044 | inactive: 0.089 | inactive: 0.025 | inactive: -0.003 | inactive: 0.064 | inactive: 0.024 | inactive: -0.056 | inactive: 0.03 | inactive: -0.04 | inactive: 0.017 | inactive: -0.01 | inactive: -0.012 | inactive: -0.086 | inactive: -0.073 | inactive: 0.006 | inactive: 0.138 | inactive: 0.035 | inactive: 0.017 | inactive: 0.075 | inactive: 0.06 |
| FIBP (UniProt O43427) | inactive: 0.023 | inactive: 0.088 | inactive: 0.011 | inactive: -0.002 | inactive: 0.107 | inactive: -0.023 | inactive: -0.032 | inactive: 0.011 | inactive: -0.144 | inactive: 0.125 | inactive: 0.026 | inactive: 0.019 | inactive: -0.146 | inactive: 0.041 | inactive: -0.143 | inactive: 0.018 | inactive: 0.065 | inactive: 0.075 |  | inactive: -0.039 |
| FAM78A (UniProt Q5JUQ0) | inactive: 0.036 | inactive: 0.025 | inactive: -0.143 | inactive: 0.062 | inactive: 0.021 | inactive: 0.026 | inactive: -0.09 | inactive: 0.076 | inactive: -0.093 | inactive: 0.025 | inactive: -0.039 | inactive: 0.004 | inactive: -0.064 | inactive: -0.095 | inactive: -0.135 | inactive: -0.19 | inactive: 0.064 | inactive: 0.167 | inactive: -0.025 | inactive: 0.007 |
| FAM76B (UniProt Q5HYJ3) | inactive: -0.042 | inactive: 0.094 | inactive: 0.049 | inactive: -0.016 | inactive: 0.009 | inactive: -0.051 | inactive: -0.322 | inactive: 0.147 | inactive: -0.131 | inactive: -0.08 | inactive: -0.175 | inactive: -0.032 | inactive: -0.008 | inactive: 0.075 | inactive: -0.065 | inactive: 0.176 | inactive: 0.133 | inactive: 0.098 | inactive: -0.098 | inactive: 0.089 |
| FDPS (UniProt P14324) | inactive: 0.18 | inactive: 0.174 | inactive: -0.022 | inactive: 0.067 | inactive: 0.3 | inactive: -0.026 | inactive: 0.06 | inactive: 0.186 | inactive: 0.006 | inactive: -0.309 | inactive: -0.127 | inactive: -0.066 | inactive: -0.096 | inactive: 0.048 | inactive: -0.319 | active: -0.63 | inactive: -0.028 | inactive: 0.048 |  | inactive: 0.083 |

An excerpt taken from the entries so far, for reference:

| Target | log2 fold change (erlotinib) | log2 fold change [1] | log2 fold change [2] | log2 fold change [3] | log2 fold change [4] | log2 fold change [5] | log2 fold change [6] | log2 fold change [7] | log2 fold change [8] | log2 fold change [9] | log2 fold change (IRAK-1-4 Inhibitor I) | log2 fold change (ibrutinib) | log2 fold change [10] | log2 fold change (ralimetinib) | log2 fold change [11] | log2 fold change [12] | log2 fold change [13] | log2 fold change (pinometostat) | log2 fold change [14] | log2 fold change [15] |
| --- | --- | --- | --- | --- | --- | --- | --- | --- | --- | --- | --- | --- | --- | --- | --- | --- | --- | --- | --- | --- |
| FLVCR1 (UniProt Q9Y5Y0) | inactive: -0.044 | inactive: 0.089 | inactive: 0.025 | inactive: -0.003 | inactive: 0.064 | inactive: 0.024 | inactive: -0.056 | inactive: 0.03 | inactive: -0.04 | inactive: 0.017 | inactive: -0.01 | inactive: -0.012 | inactive: -0.086 | inactive: -0.073 | inactive: 0.006 | inactive: 0.138 | inactive: 0.035 | inactive: 0.017 | inactive: 0.075 | inactive: 0.06 |
| FIBP (UniProt O43427) | inactive: 0.023 | inactive: 0.088 | inactive: 0.011 | inactive: -0.002 | inactive: 0.107 | inactive: -0.023 | inactive: -0.032 | inactive: 0.011 | inactive: -0.144 | inactive: 0.125 | inactive: 0.026 | inactive: 0.019 | inactive: -0.146 | inactive: 0.041 | inactive: -0.143 | inactive: 0.018 | inactive: 0.065 | inactive: 0.075 |  | inactive: -0.039 |
